Assay results: the supplement of paper PMC9135407
“And” between values parts separate entries of the source, which are not always exact repeats. Equal values may be shown once. Where a name gives a salt, the structure may show the parent alone. ± gives the standard deviation of the averaged measurements. This is one part of the list. Plates or batches differ in their baseline, so values are only roughly comparable.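 Assay uses culture-activated primary human stellate myofibroblasts; lipid droplet recovery indicates inactivation. Measured: proportion of Hoechst-counted cells over a plate-specific Bodipy cutoff, duplicate wells, DMSO and nortriptyline as per-plate negative and positive controls. A hit scores, control-normalized, above the plate's top-tenth-percentile nortriptyline wells or ranks among its three best wells. Final well concentrations not reported.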

Tested on: primary human hepatic stellate cells (donor 1)
Experiment: percent Bodipy-positive cells; higher = more lipid droplet accumulation
Settings: 48 h
[1] = library stock concentration: 2 mM
[2] = library stock concentration: 10 mM
[3] = library stock concentration: 3.33 mM
[4] = library stock concentration: 1 mM

## COc1ccc2c3n(c(=NC(=O)c4cccnc4)nc2c1OC)CCN3
Library stock concentration: 400 uM
  percent Bodipy-positive cells: 13.6 ± 5.6%
[1]
  percent Bodipy-positive cells: 21 ± 4.8%
[2]
  percent Bodipy-positive cells: 26.1 ± 13%

## CCN(CC)CCOCCOC(=O)C1(c2ccccc2)CCCC1 [Carbetapentane citrate]
  percent Bodipy-positive cells: 63.4 ± 1%

## CCN(CC)CCOCCOC(=O)C1(c2ccccc2)CCCC1 [Pentoxyverine Citrate]
[3]
  percent Bodipy-positive cells: 17.7 ± 2.3%
[2]
  percent Bodipy-positive cells: 71.8 ± 15%

## CC/C=C/C[C@H](O)/C=C/[C@H]1[C@H](O)CC(=O)[C@@H]1C/C=C\CCCC(=O)O [17-trans Prostaglandin E3]
[4]
  percent Bodipy-positive cells: 24.1 ± 5.9%

## C[C@@H]1C[C@H]2[C@@H]3CCC4=CC(=O)C=C[C@]4(C)[C@@]3(F)[C@@H](O)C[C@]2(C)[C@H]1C(=O)CO
[2]
  percent Bodipy-positive cells: 11.5 ± 8.5%

## O=c1cc(-c2ccccc2F)[nH]c2cc3c(cc12)OCO3 [CHM-1 hydrate]
[2]
  percent Bodipy-positive cells: 85.5 ± 3.3%

## O=c1[nH]ccc2c(O)cccc12 [1,5-Isoquinolinediol]
[2]
  percent Bodipy-positive cells: 30.8 ± 8.5%

## CC(C)(CO)[C@@H](O)C(=O)NCCC(=O)O [Pantothenic acid(d) na salt]
Library stock concentration: 8.3 mM
  percent Bodipy-positive cells: 5.899 ± 0.023%

## CC(C)(CO)[C@@H](O)C(=O)NCCC(=O)O [Pantothenic acid]
Library stock concentration: 9.1 mM
  percent Bodipy-positive cells: 2.81 ± 1.6%

## CC(C)(CO)[C@@H](O)C(=O)NCCC(=O)O [Pantothenic acid calcium salt monohydrate]
  percent Bodipy-positive cells: 36 ± 4.4%

## CC(C)(CO)[C@@H](O)C(=O)NCCC(=O)O [D-Pantothenic acid]
[3]
  percent Bodipy-positive cells: 4.99 ± 1.2%
[2]
  percent Bodipy-positive cells: 10.3 ± 0.33%

## CCN1CCN(Cc2ccc(Nc3ncc(F)c(-c4cc(F)c5nc(C)n(C(C)C)c5c4)n3)nc2)CC1 [Abemaciclib]
[1]
  percent Bodipy-positive cells: 55.8 ± 3.3%

## CCN(CC)C(=O)C1(c2ccccc2)CC1CN (stereo not drawn) [Milnacipran HCl]
[3]
  percent Bodipy-positive cells: 13.9 ± 1.7%
[2]
  percent Bodipy-positive cells: 36.2 ± 6.3%

## CCN(CC)C(=O)C1(c2ccccc2)CC1CN (stereo not drawn)
[2]
  percent Bodipy-positive cells: 32.8 ± 10%

## CCN(CC)C(=O)C1(c2ccccc2)CC1CN (stereo not drawn) [Milnacipran]
[2]
  percent Bodipy-positive cells: 7.35 ± 1.3%

## Cc1cc(C(C)(C)C)cc(C)c1CC1=NCCN1 [Xylometazoline hydrochloride]
  percent Bodipy-positive cells: 54.8 ± 1.2%
Library stock concentration: 7.1 mM
  percent Bodipy-positive cells: 58.2 ± 12%
[2]
  percent Bodipy-positive cells: 52.6% and 43.6%

## Cc1cc(C(C)(C)C)cc(C)c1CC1=NCCN1 [Xylometazoline HCl]
[3]
  percent Bodipy-positive cells: 29.3 ± 5.2%
[2]
  percent Bodipy-positive cells: 45.5 ± 3%

## CCN(CCCCOC(=O)c1ccc(OC)c(OC)c1)C(C)Cc1ccc(OC)cc1 (stereo not drawn) [Mebeverine hydrochloride]
  percent Bodipy-positive cells: 57.5 ± 11%
[2]
  percent Bodipy-positive cells: 26.4 ± 8.1%

## COc1cc(NC(=O)c2ccccn2)ccc1Cl
[3]
  percent Bodipy-positive cells: 10.7 ± 2.8%
[2]
  percent Bodipy-positive cells: 12.3% and 11.6%

## O=C(c1cc(O)c(O)c([N+](=O)[O-])c1)c1ccccc1F
[2]
  percent Bodipy-positive cells: 14.6 ± 4.3%

## O=c1nc2ccccc2c2n1CC(CN1CCN(c3ccccc3)CC1)N2 (stereo not drawn)
[2]
  percent Bodipy-positive cells: 27.6 ± 9.9%

## CC[C@H](CO)Nc1nc(Nc2cccc(-c3ccccn3)c2)c2ncn(C(C)C)c2n1 [(R)-DRF053 dihydrochloride]
[2]
  percent Bodipy-positive cells: 18.2 ± 4.1%

## c1ccc2c(c1)CC(N1CCN(c3cccc4c3OCCO4)CC1)C2
[2]
  percent Bodipy-positive cells: 50.3 ± 6.8%

## CC(=O)c1cc2ccccc2oc1=O [3-Acetylcoumarin]
  percent Bodipy-positive cells: 5.99 ± 3%

## CCCCCCOc1ccccc1C(N)=O [Exalamide]
[2]
  percent Bodipy-positive cells: 33 ± 12%

## CC(=O)Nc1c(I)c(C(=O)N[C@H]2C(O)O[C@H](CO)[C@@H](O)[C@@H]2O)c(I)c(N(C)C(C)=O)c1I (stereo partly drawn) [Metrizamide]
  percent Bodipy-positive cells: 39.8 ± 6.7%

## CCN(CC)CCNC(=O)c1ccc(N)cc1 [Procainamide HCl]
[3]
  percent Bodipy-positive cells: 11 ± 3.4%
[2]
  percent Bodipy-positive cells: 39.3 ± 11%

## CCN(CC)CCNC(=O)c1ccc(N)cc1 [Procainamide hydrochloride]
  percent Bodipy-positive cells: 21.1 ± 5%
[2]
  percent Bodipy-positive cells: 11.4% and 16.6%

## CCN(CC)CCNC(=O)c1ccc(N)cc1 [Pronestyl]
[2]
  percent Bodipy-positive cells: 30.3 ± 8.3%

## NC[C@H](O)c1ccc(O)c(O)c1 [Norepinephrine]
[2]
  percent Bodipy-positive cells: 13 ± 1.3%
Library stock concentration: 11.8 mM
  percent Bodipy-positive cells: 6.02 ± 2.8%

## NC[C@H](O)c1ccc(O)c(O)c1 [Noradrenaline bitartrate monohydrate]
[3]
  percent Bodipy-positive cells: 8.58 ± 0.56%
[2]
  percent Bodipy-positive cells: 15.7 ± 0.83%

## Cc1ccccc1N1CCN(S(=O)(=O)C[C@]23CC[C@H](C[C@@H]2NC(=O)[C@@H](N)CCS(C)(=O)=O)C3(C)C)CC1 [L-368,899 hydrochloride]
[2]
  percent Bodipy-positive cells: 14.9 ± 1.5%

## CCc1cc2c(cc1CC)CC(NC[C@H](O)c1ccc(O)c3[nH]c(=O)ccc13)C2 [Indacaterol Maleate]
[3]
  percent Bodipy-positive cells: 43 ± 2.8%

## Cc1c(-c2ccc(O)cc2)n(Cc2ccc(OCCN3CCCCCC3)cc2)c2ccc(O)cc12 [Bazedoxifene HCl]
[3]
  percent Bodipy-positive cells: 64.7 ± 9.7%
[2]
  percent Bodipy-positive cells: 98.9 ± 1.6%

## CCOC1O[C@H]([C@@H](COCc2ccccc2)OCc2ccccc2)[C@H](OCc2ccccc2)[C@H]1O (stereo partly drawn) [Tribenoside]
  percent Bodipy-positive cells: 12 ± 1.5%

## C=C[C@]1(C)C[C@@H](OC(=O)CSC(C)(C)CNC(=O)[C@H](N)C(C)C)[C@]2(C)[C@H](C)CC[C@]3(CCC(=O)[C@H]32)[C@@H](C)[C@@H]1O [Valnemulin HCl]
[3]
  percent Bodipy-positive cells: 19 ± 5.3%
[2]
  percent Bodipy-positive cells: 81.3 ± 5.8%

## O=C(O)C1=C(CSc2nnnn2CS(=O)(=O)O)CS[C@@H]2[C@H](NC(=O)[C@H](O)c3ccccc3)C(=O)N12 [Cefonicid sodium]
Library stock concentration: 3.5 mM
  percent Bodipy-positive cells: 14 ± 9.7%

## CCCCC1C(=O)CCC2C(CCCCCCC(=O)O)C(=O)CC12 (stereo not drawn) [Bicyclo Prostaglandin E1]
[4]
  percent Bodipy-positive cells: 10.6 ± 0.24%

## CCNC(=O)c1noc(-c2cc(C(C)C)c(O)cc2O)c1-c1ccc(CN2CCOCC2)cc1
[3]
  percent Bodipy-positive cells: 73.506 ± 0.052%

## CCOC(=O)[C@@H](C)Oc1cccc2c(=O)n(CC(=O)Nc3ccc4c(c3)OCCO4)ccc12
[2]
  percent Bodipy-positive cells: 26.9 ± 6%

## O=C1C(Cl)=C(N2CCOCC2)C(=O)N1c1ccc(Cl)c(Cl)c1
[3]
  percent Bodipy-positive cells: 19 ± 1.2%
[2]
  percent Bodipy-positive cells: 32.8 ± 2.5%
